Source: PubChem BioAssay AID504834 (National Center for Advancing Translational Sciences (NCATS), 2011)
The whole screen tested about 320,000 compounds, of which about 22,000 (6.9%) were called active. The shares of active, inactive and inconclusive entries below differ from those in the screen. The call rests on the fitted dose curve; in most records, active means well fitted inhibition curve with a large enough effect; inconclusive means small, poorly fitted or top-dose-only effect, or another doubt; inactive means no such curve, though single readings can be large or run the other way. Potencies of inconclusive entries are doubtful fits and often do not repeat.

assay: Primary qHTS for delayed death inhibitors of the malarial parasite plastid, 96 hour incubation; details: P. falciparum luciferase reporter growth; series mostly up to 28.7 µM
How it was run: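 Parasite growth measured via integrated firefly luciferase reporter in P. falciparum. Infected erythrocytes at 2% hematocrit, 0.05% parasitemia final were treated 96 hours at 37 C under 5% CO2, and luminescence was read.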
Potency means the concentration at half of the fitted maximal effect.

SMILES | Potency
O=C(c1ccc2c(=O)n3c(nc2c1)CCCCC3)N1CCN(c2ccc(Cl)cc2)CC1 | inconclusive: 18.5 µM [inhibitor, partial curve, poor fit]
Oc1ccc2n[nH]nc2c1 | inactive
Clc1ccc(Cc2ccccc2)nn1 | inconclusive: 4.15 µM [inhibitor, single point]
CCC(CC)NCc1ccc2c(c1)c1ccccc1n2CC | inconclusive: 18.5 µM [inhibitor, single point]
Cc1cc(C)c(-c2csc(NC(=O)CCCc3nc4ccccc4c(=O)[nH]3)n2)c(C)c1 | active: 0.329 µM
Cc1ccc(C)c(CS(=O)(=O)c2cn(CC(=O)N3CCC(C)CC3)c3ccccc23)c1 | active: 5.22 µM
COc1ccccc1NC(=O)/C(=N/OCc1ccc(F)cc1)C(C)=O | inactive
O=C(O)c1cccc(-n2cccc2/C=C2/NC(=O)N(Cc3ccccc3F)C2=O)c1 | inconclusive: 5.22 µM [inhibitor, partial curve, poor fit]
O=C(/C=C/c1cn(-c2ccccc2)nc1-c1ccccc1)Nc1ccc(C(=O)O)cc1 | inactive
COc1ccc(NS(=O)(=O)c2cccc(C(=O)N/N=C(\C)c3ccncc3)c2)cc1 | inconclusive: 13.1 µM [inhibitor, single point]
COc1ccccc1C(=O)N1CC2(C)CC1CC(C)(C)C2 (stereo unspecified) | inconclusive: 18.5 µM [inhibitor, single point]
N#Cc1cccc(NC(=O)COC(=O)CCc2nc3ccccc3c(=O)[nH]2)c1 | inactive
Cc1nc2ccc(Cl)cc2c(=O)n1-c1cccc(Cl)c1 | inconclusive: 0.0329 µM [inhibitor, full curve, poor fit]
Cc1ccc(NC(=O)N(C)c2ccccc2)cc1 | inconclusive: 10.4 µM [inhibitor, partial curve, poor fit]
O=[N+]([O-])c1ccccc1N/N=C/c1cccc(O)c1O | inactive
Cc1ccc(S(=O)(=O)NCC(C)NS(=O)(=O)c2ccc(C)cc2)cc1 (stereo unspecified) | inactive
Cc1cccc(C(=O)O/N=C2\CCCc3ccccc32)c1 | inactive
CC(SCC(=O)Nc1ccc(F)cc1)c1nc2ccccc2c(=O)[nH]1 (stereo unspecified) | inactive
CC(Oc1ccc(F)cc1)C(=O)N(CCC1=CCCCC1)c1c(N)n(Cc2ccccc2)c(=O)[nH]c1=O (stereo unspecified) | active: 9.28 µM
O=C(NC(=S)N1CCN(c2ccccc2)CC1)c1ccccc1 | active: 4.65 µM
Cc1ccc(Cl)cc1NC(=S)N(CCCN1CCOCC1)Cc1ccco1 | inconclusive: 6.57 µM [inhibitor, partial curve]
CC(C)=NNc1nc2c(c(=O)[nH]c(=O)n2C)n1CCc1ccccc1 | inactive
O=C(NCc1ccccc1)c1ccc(=O)[nH]n1 | inconclusive: 0.0294 µM [inhibitor, full curve, poor fit]
CC(=O)N1c2ccc(S(=O)(=O)N3CCCC(C(=O)N4CCCC(C)C4)C3)cc2CC1C (stereo unspecified) | inconclusive: 11.7 µM [inhibitor, single point]

SMILES | Potency
CCOc1cc(/C=N/Nc2nc(C)cc(=O)[nH]2)ccc1O | inactive
COc1ccc(OC)c(C2c3[nH]c4ccccc4c3C[C@H]3C(=O)N(C4CC4)CC(=O)N23)c1 (stereo partly specified) | inconclusive: 10.4 µM [inhibitor, single point]
CCC(C)(C)C1CCC2(CC1)NC(=O)N(CC(=O)NCCc1c[nH]c3ccccc13)C2=O (stereo unspecified) | inconclusive: 8.28 µM [inhibitor, partial curve, poor fit]
CC(=NCc1ccc2c(c1)OCO2)c1c(O)n(Cc2ccccc2)c(=O)[nH]c1=O | inconclusive: 18.5 µM [inhibitor, single point]
C/C(=N/Nc1cc(-c2ccccc2)nc(-c2ccccc2)n1)c1ccc(O)cc1 | inconclusive: 9.28 µM [inhibitor, single point]
Cc1cccc(OCC(=O)NCC(=O)N/N=C/c2c(C)[nH]c3ccccc23)c1 | inactive
O=C1C=CC(=O)N1 | inactive
COC(=O)c1ccc(CNC(=O)CSC2=NCCS2)cc1 | inactive
CCOc1cc(CNCCN(C)C)c(Cl)cc1OCC(=O)NCCc1ccccc1 | inconclusive: 18.5 µM [inhibitor, single point]
COc1ccc(-c2ccc(SCC(=O)Nc3nnc(C)s3)nn2)cc1 | inconclusive: 4.15 µM [inhibitor, full curve]
CN(C)CCSc1nnc(-c2ccccc2)o1 | inconclusive: 4.15 µM [inhibitor, single point]
Fc1ccc(-c2csc3ncnc(N4CCc5ccccc5C4)c23)cc1 | inconclusive: 13.1 µM [inhibitor, single point]
CCN(CC(=O)Nc1cccc(OC)c1)C(=O)C1CCN(C(=O)Nc2ccccc2)CC1 | inconclusive: 18.5 µM [inhibitor, single point]
CC(=O)c1ccc(N2CCN(c3ccc(S(=O)(=O)NCCN(C)C)cc3[N+](=O)[O-])CC2)cc1 | inconclusive: 9.28 µM [inhibitor, single point]
Cc1ccc(NC(=O)CSc2cccc3cccnc23)c(C)c1 | inconclusive: 11.7 µM [inhibitor, partial curve]
Cc1cc(C)c(-c2csc(Cc3nc(-c4cc5ccccc5oc4=O)cs3)n2)cc1C | inconclusive: 13.1 µM [inhibitor, single point]
O=C(/C=C/c1cn(CC(O)CN2CCOCC2)c2ccccc12)c1cccs1 (stereo unspecified) | inconclusive: 0.522 µM [inhibitor, full curve, poor fit]
OCC[C@@H]1C[C@@H](O)[C@H](O)[C@]2(OCCc3ccccc32)O1 | inconclusive: 0.586 µM [inhibitor, full curve, poor fit]
CN1CCN(/C=N/C2=C(C#N)C(c3ccccc3)C3=C(CC(C)(C)CC3=O)O2)CC1 (stereo unspecified) | inconclusive: 0.117 µM [inhibitor, full curve, poor fit]
COc1ccc(CC(=O)NCC2COc3ccccc3O2)cc1 (stereo unspecified) | inconclusive: 4.65 µM [inhibitor, full curve, poor fit]
O=C(NCC1CCCN1S(=O)(=O)c1cccs1)c1ccc(Cl)cc1 (stereo unspecified) | inconclusive: 18.5 µM [inhibitor, single point]
COc1ccccc1N1CCN(S(=O)(=O)c2ccc(-n3cnnn3)cc2)CC1 | inactive
CCc1ccc(C2NC(=S)NC3=C2C(=O)N(c2ccccc2OC)C(c2ccc(CC)cc2)N3)cc1 (stereo unspecified) | inconclusive: 11.7 µM [inhibitor, single point]
Cc1nn(C)c(C)c1NC(=O)CC12CC3CC(CC(C3)C1)C2 | inactive

Looked up one by one from the list above:
SMILES | Potency
CN(C)CCSc1nnc(-c2ccccc2)o1 | inconclusive: 4.15 µM [inhibitor, single point]
Cc1ccc(NC(=O)CSc2cccc3cccnc23)c(C)c1 | inconclusive: 11.7 µM [inhibitor, partial curve]

Later entries.

SMILES | Potency
N#Cc1cccc(NC(=O)COC(=O)Cn2nc(-c3ccccc3)oc2=O)c1 | inactive
Cc1ccc(-c2nn(-c3ccccc3)cc2C(=O)N2CCN(C3CCS(=O)(=O)C3)CC2)cc1 (stereo unspecified) | inconclusive: 7.38 µM [inhibitor, partial curve]
Cc1ccc(C)c(S(=O)(=O)N2CCN(C(=O)c3ccc(-n4cncn4)c([N+](=O)[O-])c3)CC2)c1 | active: 11.7 µM
Cc1cc(NC(=O)C(C)SCC(=O)Nc2nc3c(F)cc(F)cc3s2)no1 (stereo unspecified) | inconclusive: 18.5 µM [inhibitor, single point]
COc1ccccc1OCCn1cc(/C=N/NC(=O)c2ccncc2)c2ccccc21 | inactive
Nc1cccc2c(=O)c3ccccc3[nH]c12 | active: 1.85 µM
Cc1nn(CCC(=O)O)c2nc(-c3cccnc3)cc(C(F)(F)F)c12 | inconclusive: 18.5 µM [inhibitor, single point]
Cc1cc(C)n2nc(CNS(=O)(=O)c3ccc([N+](=O)[O-])cc3)nc2n1 | inconclusive: 18.5 µM [inhibitor, single point]
CCN(CC)CCNC(=O)/C(=C\c1cccn1C)NC(=O)c1cccs1 | active: 1.85 µM
Cc1cc(C(C)(C)C)ccc1OCCn1ccnc1 | inconclusive: 7.38 µM [inhibitor, partial curve, poor fit]
COCCCNC(=O)c1cc(S(=O)(=O)N2CCOCC2)ccc1SCc1cccc(OC)c1OC | inconclusive: 10.4 µM [inhibitor, single point]
COc1ccc(/C(O)=C2\C(=O)C(=O)N(c3cc(C)on3)C2c2ccccc2OC)cc1 (stereo unspecified) | inconclusive: 18.5 µM [inhibitor, single point]
O=C(Nc1ccccc1N(C(=O)c1ccco1)S(=O)(=O)c1cccs1)c1ccco1 | inconclusive: 18.5 µM [inhibitor, single point]
COc1ccc(CC(=O)N2CCN(c3ccc(C4=NNC(=O)CC4C)cc3)CC2)cc1 (stereo unspecified) | inconclusive: 18.5 µM [inhibitor, single point]
COc1cc(C)ccc1OCCOCCOc1cc(C)c(C)cc1Br | inactive
Cc1cc(C(=O)N/N=C/c2c[nH]c3ccccc23)c(C)o1 | inactive
CCN(CC)C(=O)c1ccc(NC(=O)C2=C(C)OCCS2)cc1 | inactive
COc1c(Cl)cc(C(=O)Nc2ccccc2C(=O)O)cc1Cl | inconclusive: 2.94 µM [inhibitor, single point]
CN(C)CCOC(=O)[C@@H](c1ccccc1)C1(O)CCCC1 | inactive
CC(C)(C)c1nc(SCC(=O)Nc2ccc3c(c2)OCCO3)c2ccccc2n1 | inconclusive: 8.28 µM [inhibitor, single point]
Cn1cnnc1Sc1nc2ccccc2nc1NS(=O)(=O)c1ccccc1 | inactive
Cc1cccc(-n2c(SCC(=O)Nc3cccc(S(=O)(=O)NC4=NCCCCC4)c3)nc3ccccc3c2=O)c1C | active: 5.22 µM
CCOC(=O)C(=O)CC(=O)c1ccc2c(c1)OCCO2 | inconclusive: 18.5 µM [inhibitor, single point]
